In the test the target is human TREK-1 (Homo sapiens, UniProt O95069). As to the kind of experiment: TREK-1 Thallium (Tl+) flux assay, Method 1. The conditions noted are these: read-out: Tl+ Assay IC50. The procedure: The term “thallium flux assay” herein refers to a fluorescence-based assay used to monitor the activity of TREK channels. Thallium is a congener of potassium that readily fluxes through the pore of TREK channels. Thallium flux is measured using a commercially available, thallium-sensitive fluorescent dye called Thallos. The detail method is described below.
CHO-K1 cells stably expressing human TREK-1 were plated in 384-well plates, cultured overnight, loaded with Thallos dye the following day. Test compounds or control compound (tert-butyl (3-((4-(benzyloxy)-2-methylphenyl)carbamoyl)-4-chlorophenyl)carbamate) or 0.3% DMSO (vehicle control) which were prepared on separate plates were added to the cell plates and incubated for 10 min, and then the cells were treated with thallium stimulus buffer to initiate thallium flux. To measure the efficacy and potency of test compounds, the change in fluorescence intensity (ΔRatio) and % inhibition were calculated using the following equations:
ΔRatio=(fluorescence intensity at 25 seconds after thallium addition)/(average of fluorescent intensity before thallium addition)
% inhibition={1−(ΔRatio of test compound−ΔRatio of 10 μM control compound)/(ΔRatio of 0.3% DMSO−ΔRatio of 10 μM control compound)}×100

Amino acid sequences for entries named in this document (tags omitted).
UniProt O95069, whole entry: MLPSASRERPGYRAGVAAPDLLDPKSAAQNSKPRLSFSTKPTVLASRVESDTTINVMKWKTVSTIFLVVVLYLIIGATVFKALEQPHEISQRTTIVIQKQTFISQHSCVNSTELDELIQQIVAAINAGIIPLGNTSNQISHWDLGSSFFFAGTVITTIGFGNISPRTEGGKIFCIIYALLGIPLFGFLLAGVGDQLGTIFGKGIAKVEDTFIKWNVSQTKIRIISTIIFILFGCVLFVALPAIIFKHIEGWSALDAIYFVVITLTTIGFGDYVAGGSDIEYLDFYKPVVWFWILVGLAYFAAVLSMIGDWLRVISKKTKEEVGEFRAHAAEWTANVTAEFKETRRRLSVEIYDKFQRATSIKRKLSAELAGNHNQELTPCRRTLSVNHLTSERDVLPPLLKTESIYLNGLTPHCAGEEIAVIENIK

Structures were worked out from names or drawings and are uncertain.

In the case of `Cc1cc(OCc2ccccc2)ccc1NC(=O)c1c(Cl)cnn1CC1CN(C(=O)C(C)(C)C)CCO1` (stereo not shown), the IC50 was 3.98 µM.

The term IC50 denotes the concentration that gives 50% inhibition.

For the origin of these results see patent US20240182445A1 (ONO PHARMACEUTICAL CO., LTD., priority 2019, published 2024).
